Assay results from PubChem BioAssay AID720504 (National Center for Advancing Translational Sciences (NCATS), 2013).
Out of some 360,000 compounds screened, about 10,000 (2.8%) were called active. Inconclusive results, whose numbers are uncertain, are shown with a selection of clear calls. Calls come from the whole dose curve; as a rule, active = well fitted inhibition curve with a large enough effect; inconclusive = small, poorly fitted or top-dose-only effect; inactive = flat fitted curve, though single readings scatter. Where the call is inconclusive, the potency comes from a doubtful curve fit.

The chains behind the UniProt entries cited, without tags or fusion partners.
UniProt P53350, whole entry, looked up: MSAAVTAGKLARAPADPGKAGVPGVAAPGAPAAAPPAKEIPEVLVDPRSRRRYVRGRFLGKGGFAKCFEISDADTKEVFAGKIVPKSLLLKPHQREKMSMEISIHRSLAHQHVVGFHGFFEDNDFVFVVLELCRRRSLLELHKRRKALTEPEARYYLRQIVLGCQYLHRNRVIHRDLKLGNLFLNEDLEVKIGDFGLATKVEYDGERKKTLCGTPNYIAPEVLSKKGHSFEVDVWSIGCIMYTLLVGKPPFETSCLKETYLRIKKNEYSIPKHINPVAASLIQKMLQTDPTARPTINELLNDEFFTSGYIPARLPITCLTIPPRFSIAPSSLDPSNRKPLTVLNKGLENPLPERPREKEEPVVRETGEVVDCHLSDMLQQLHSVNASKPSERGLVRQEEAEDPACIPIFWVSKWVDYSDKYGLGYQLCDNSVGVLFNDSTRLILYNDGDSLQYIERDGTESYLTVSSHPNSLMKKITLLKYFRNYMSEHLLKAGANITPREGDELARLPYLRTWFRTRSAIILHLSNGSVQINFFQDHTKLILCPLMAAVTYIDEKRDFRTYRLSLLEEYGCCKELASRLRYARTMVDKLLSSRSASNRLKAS

biological target: Serine/threonine-protein kinase PLK1 (Homo sapiens) (UniProt P53350); assay: qHTS for Inhibitors of PLK1-PDB (polo-like kinase 1 - polo-box domain): Primary Screen; conditions: Plk1 PBD binding of FITC phosphopeptide, fluorescence polarization; note: nearly all actives have a fitted effect of over 65% in size; for max response, negative = inhibition: series mostly up to about 57 µM
% is set by controls: 0 for no effect and ±100 for the full control effect; potency is the fitted concentration of half-maximal effect.

SMILES	Potency	max response, negative = inhibition
COc1cc(/C=C2\C(=O)ON=C2c2ccccc2)cc(Cl)c1O	inconclusive: 1.68 µM [inhibitor, partial curve]	
CN(C(=O)CSc1nc2ccccc2s1)c1c(N)n(Cc2ccccc2)c(=O)[nH]c1=O	inconclusive: 33.6 µM [inhibitor, partial curve]	
O=C(O)c1ccc(-c2nc(-c3ccc(Cl)cc3)cs2)cc1		inconclusive: -30.6% [inhibitor]
O=C1Nc2ccccc2SC(c2ccccc2)C1O (stereo unspecified)	inconclusive: 23.8 µM [inhibitor, partial curve]	
CC1(C)CC(N2CCCC2)=CC(=[N+]2CCCCCC2)C1	active: 29.9 µM	
Cc1cc(C)nc(Sc2nc(Nc3ccccc3)nc(Sc3nc(C)cc(C)n3)n2)n1	inconclusive: 21.2 µM [inhibitor, single point]	
COc1cc2[nH]c(=O)n(CCCCCC(=O)N3CC=C(c4ccccc4)CC3)c(=O)c2cc1OC		inactive: -9.44%
C=CCN(C(=O)CCC(=O)Nc1cc(C)on1)C(C(=O)NC1CCCC1)c1ccc(CC)cc1 (stereo unspecified)	active: 26.7 µM	
CN1C(=O)c2ccccc2NC(=O)[C@]12O[C@@H]2c1cccc(O)c1		inconclusive: -30.8% [inhibitor]
O=[N+]([O-])c1cccc(-c2ccc(C(=S)N3CCN(c4ccccc4)CC3)o2)c1	active: 11.9 µM	
COc1cc(C2CC(=O)N3CN(Cc4ccco4)CSC3=C2C#N)ccc1OCc1ccccc1 (stereo unspecified)	inconclusive: 23.8 µM [inhibitor, single point]	
Cn1c(=O)c([N+](=O)[O-])c(Cl)c2ccccc21	inconclusive: 4.74 µM [inhibitor, full curve]	
CCNC(=O)c1ccc(-n2nc(C)cc2-c2ccccc2)cc1		inconclusive: -30% [inhibitor]
Clc1ccc(/C=N/N2CCCCC2)cc1		inactive: -1.77%
COc1cccc(OC)c1CC1SC(=O)NC1=O (stereo unspecified)		inactive: -5.38%
Cc1ccc(-n2c(C)cc(C=C3C(=O)N(C)C(=O)N(C)C3=O)c2C)cc1		inactive: -11.7%
O=C(COc1ccc(-c2ccccc2)cc1)N1CCCC1		inactive: -4.16%
COc1ccc(NC(=O)c2c(SC)nsc2SC)cc1	inconclusive: 23.8 µM [inhibitor, partial curve]	
O=C(/C=C/c1ccco1)N(Cc1ccc(Cl)cc1)C1CCS(=O)(=O)C1 (stereo unspecified)	inconclusive: 33.6 µM [inhibitor, partial curve, poor fit]	
Cc1nc(NC(=O)C(C)(C)C)sc1-c1nc(N)sc1-n1cc(-c2ccccc2)nn1	inconclusive: 18.9 µM [inhibitor, single point]	
O=S(=O)(CCSc1ccccn1)c1nc2ccccc2s1	active: 6.7 µM	
COCC(=O)N(CCc1ccc(OC)c(OC)c1)Cc1cc2cc(C)ccc2nc1Cl	inconclusive: 18.9 µM [inhibitor, partial curve]	
COc1cc(/C=N/Nc2ccc(Cl)c(C(=O)O)c2)ccc1OC(=O)c1ccccc1F	inconclusive: 23.8 µM [inhibitor, single point]	
Cc1c(Cl)cccc1NC(=O)CCN1CCN(C)CC1		inactive: 0.79%

Part of the list above in order of molar mass, falling:
SMILES	Potency	max response, negative = inhibition
COCC(=O)N(CCc1ccc(OC)c(OC)c1)Cc1cc2cc(C)ccc2nc1Cl	inconclusive: 18.9 µM [inhibitor, partial curve]	
O=C(O)c1ccc(-c2nc(-c3ccc(Cl)cc3)cs2)cc1		inconclusive: -30.6% [inhibitor]
Clc1ccc(/C=N/N2CCCCC2)cc1		inactive: -1.77%

(cont.)

SMILES	Potency	max response, negative = inhibition
Cc1ccc2c(c1)-c1[nH]c(=S)ncc1CS2	inconclusive: 4.23 µM [inhibitor, partial curve]	
CCOc1ccccc1C(=S)NC1CCCCC1	inconclusive: 13.4 µM [inhibitor, partial curve]	
Cc1nn(S(=O)(=O)c2ccccc2)c(C)c1S(=O)(=O)N1CCOCC1	inconclusive: 37.7 µM [inhibitor, single point]	
COC(=O)C[C@@H]1C=C[C@H](NC(=O)Cc2ccccn2)[C@@H](CO)O1		inactive: -11.5%
COC(=O)c1cccc(CSc2nc(-c3ccccc3)c(C#N)c(=O)[nH]2)c1	inconclusive: 26.7 µM [inhibitor, single point]	
CCc1nnc(NC(=O)c2cc(-c3ccco3)nc3ccccc23)s1	inconclusive: 26.7 µM [inhibitor, single point]	
CCOC(=O)[C@]12CCCC=C1N(Cc1ccccc1)C(=O)[C@H](CC(=O)NCCCCc1ccccc1)C2		inactive: -0.618%
O=C(C[n+]1cn(C(F)F)c2ccccc21)c1ccc(Br)cc1	inconclusive: 23.8 µM [inhibitor, partial curve]	
Cc1cc(Cl)cc2c(N=Nc3ccccc3C(=O)O)c(O)[nH]c12	inconclusive: 26.7 µM [inhibitor, single point]	
O=C(NNC(=O)c1ccccc1F)c1cccc(-n2cccc2)c1	inconclusive: 26.7 µM [inhibitor, partial curve]	
Cn1nc(C(=O)NCc2ccc(F)cc2)c2c1-c1ccccc1S(=O)(=O)C2		inconclusive: -0.0946% [inhibitor]
COc1ccc(-c2nc(C#N)c(N3CCC(C)CC3)o2)cc1		inactive: -12.3%
COc1ccc(CC(=O)N2CCOCC2)cc1	inconclusive: 29.9 µM [inhibitor, single point]	
O=C(N/N=C/c1ccc[nH]1)c1cc(-c2ccc(Cl)cc2)nc2ccccc12		inactive: -10.4%
Cc1ccc(/C=c2/sc3n(c2=O)CCCN=3)o1		inactive: 1.71%
CC(=O)Nc1ccc(NC(=S)NC(=O)/C=C/c2ccc(Cl)cc2)cc1	inconclusive: 23.8 µM [inhibitor, single point]	
CCNc1ccc(Br)cc(C(=O)/C=C/c2ccc3c(c2)OCO3)c1=O	inconclusive: 16.8 µM [inhibitor, partial curve]	
Cc1cc(C)cc(NC(=O)Cc2ccc(-n3cccc3)cc2)c1		inactive: -1.14%
Cc1ccc(Nc2nnc(SC3CCOC3=O)s2)cc1 (stereo unspecified)		inactive: -20.9%
COC(=O)[C@@H](NS(=O)(=O)c1ccc(F)cc1Br)C(C)C		inactive: -1.99%
Cc1nc(C)c(-c2ccc(SCc3ccc([N+](=O)[O-])cc3)nn2)s1	inconclusive: 21.2 µM [inhibitor, partial curve]	
Cc1cccc(N2CCN(C(=O)c3ccc4[nH]c(C)c(C)c4c3)CC2)c1C		inactive: -4.52%
Cc1c(OCc2ccc(C(=O)O)cc2)ccc2c(-c3ccccc3)cc(=O)oc12	inconclusive: 33.6 µM [inhibitor, partial curve]	
CN(C)c1ccc(-c2ccnc3c2CC(C)(C(=O)Nc2ccc(F)c(Cl)c2)O3)cc1 (stereo unspecified)		inactive: -3.33%

SMILES	Potency	max response, negative = inhibition
COc1ccc(OC)c(-c2nc(C(=O)NC3CCN(Cc4ccccc4)CC3)cc3c2[nH]c2ccccc23)c1		inactive: 3.5%
O=C1C(=O)N(CCN2CCOCC2)C(c2ccccn2)/C1=C(/O)c1ccc(F)cc1 (stereo unspecified)	active: 10.6 µM	
C(=N\N(Cc1ccccc1)c1ccccc1)/c1cccnc1		inactive: -5.12%
CCN1CCN(c2ccc(S(=O)(=O)N3CCCCC3)cc2NC(=O)COc2ccc(Cl)c(C)c2)CC1		inactive: 0.228%
CCOC(=O)c1sc(=S)n(C)c1NC(=O)c1ccc(F)cc1	active: 5.32 µM	
CCC(C)(C(=O)NC1CCCCC1)N(C(=O)C1CCC(=O)N1)c1ccc(C)cc1 (stereo unspecified)	inconclusive: 23.8 µM [inhibitor, partial curve]	
CCN(CC)S(=O)(=O)c1ccc(C)c(NC(=O)CN2CCN(Cc3ccccc3)CC2)c1		inactive: 0.627%
CCCCN(CCCC)c1ccc(C(=O)c2ccccc2C(=O)O)c(O)c1	inconclusive: 23.8 µM [inhibitor, single point]	
O=C(NCC1CCCCC1)c1cccc([N+](=O)[O-])c1		inactive: 0.87%
CC(C)CC(=O)N1CCC(N2CCN(c3ccccc3)CC2)CC1	active: 29.9 µM	
Cn1c(Cn2c(=O)sc3ccccc32)nnc1SCC(=O)NC1CCCCC1	inconclusive: 23.8 µM [inhibitor, partial curve]	
O=C(Nc1ccc(Cc2ccc(NC(=O)C3CC3)cc2)cc1)C1CC1	active: 26.7 µM	
COc1ccc(/C=N/NC(=O)c2[nH]c3ccc(Br)cc3c2-c2ccccc2)c(C(=O)O)c1OC	inconclusive: 37.7 µM [inhibitor, single point]	
O=[N+]([O-])c1ccc(CSc2nnc(SCc3ccc(Cl)cc3)s2)cc1	inconclusive: 8.44 µM [inhibitor, single point]	
COc1ccc(-n2nc(C(=O)N3CCN(c4ccc(F)cc4)CC3)c3ccccc3c2=O)c(OC)c1	inconclusive: 18.9 µM [inhibitor, partial curve]	
O=C(CSc1n[nH]c(-c2ccccc2)n1)Nc1ncccn1		inactive: -1.96%
COC(=O)CCC(NC(=O)c1cc(-c2ccc3c(c2)OCCO3)oc1C)C(=O)OC (stereo unspecified)		inactive: -29.7%
O=C(O)c1ccc2c(c1)S(=O)(=O)N=C1CCCCCN12		inactive: -15.5%
C[C@@H]1CCCCO[C@@H](CN(C)C(=O)c2ccncc2)[C@@H](C)CN([C@H](C)CO)C(=O)c2cc(N(C)C)ccc2O1	inconclusive: 29.9 µM [inhibitor, partial curve]	
CC(=O)N(C)c1ccc(C=C2C=Cc3ccccc32)cc1	inconclusive: 26.7 µM [inhibitor, single point]	
COc1ccc(NC(=O)CSc2nc(N)cc(N)n2)cc1S(=O)(=O)N1CCCCC1	inconclusive: 26.7 µM [inhibitor, single point]	
CCNC(=O)Nc1cc(S(=O)(=O)Nc2ccc(OC)cc2)ccc1N1CCOCC1		inactive: 4.3%
Cc1nn(C)cc1CNCc1c(C(=O)N2CCCCC2)nc2c(C)cccn12	inconclusive: 26.7 µM [inhibitor, single point]	
